Laboratory results as given in US20190127480A1.
No constants are given. Whether binding was seen depends on the method and setting. Some entries that bind do so weakly or less than the wild type.

Chains of the proteins cited; added tags and fusions are not shown. Lines headed by an entry give the natural chain unless they say otherwise; changes in a name come on top.
UniProt Q04609: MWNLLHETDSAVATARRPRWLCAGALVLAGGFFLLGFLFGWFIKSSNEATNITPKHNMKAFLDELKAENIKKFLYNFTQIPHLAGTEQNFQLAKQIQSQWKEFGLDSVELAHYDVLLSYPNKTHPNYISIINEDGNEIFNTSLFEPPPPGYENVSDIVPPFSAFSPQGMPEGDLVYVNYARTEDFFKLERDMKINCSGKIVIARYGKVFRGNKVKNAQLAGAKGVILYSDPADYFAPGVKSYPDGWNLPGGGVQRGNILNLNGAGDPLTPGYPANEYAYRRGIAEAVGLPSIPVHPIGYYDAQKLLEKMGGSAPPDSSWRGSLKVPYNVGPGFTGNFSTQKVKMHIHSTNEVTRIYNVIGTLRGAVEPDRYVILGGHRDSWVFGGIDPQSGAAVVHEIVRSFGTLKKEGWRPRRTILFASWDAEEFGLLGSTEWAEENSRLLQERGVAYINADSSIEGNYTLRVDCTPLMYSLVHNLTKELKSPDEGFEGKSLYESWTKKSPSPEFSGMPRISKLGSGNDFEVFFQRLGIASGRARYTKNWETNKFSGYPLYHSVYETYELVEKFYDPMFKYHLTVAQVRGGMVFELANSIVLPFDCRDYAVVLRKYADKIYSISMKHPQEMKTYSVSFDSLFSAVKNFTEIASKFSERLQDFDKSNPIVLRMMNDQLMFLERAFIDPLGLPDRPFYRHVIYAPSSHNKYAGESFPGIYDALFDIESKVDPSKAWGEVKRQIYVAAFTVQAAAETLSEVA

B1: BSPSMA/CD3-003 (bispecific antibody, IgG4, V domains shown)
VH 1: QVQLVESGGGVVQPGRSLRLSCAASGFTFSSYGMHWVRQAPGKGLEWVAVISYAGNNKYYADSVKGRFTVSRDNSKKTLYLQMNSLRSEDTAVYYCAKDSYYDFLTDPDVLDIWGQGTMVTVSS
VH 2: EVQLVESGGGLVQPGRSLRLSCAASGFTFDDYSMHWVRQAPGKGLEWVSGISWNSGSKGYADSVKGRFTISRDNAKNSLYLQMNSLRAEDTALYYCAKYGSGYGKFYHYGLDVWGQGTTVTVSS
VL: DIQMTQSPSSLSASVGDSVTITCRASQSINNYLNWYQQKPGKAPKLLIYTASSLLSGVPSRFSGSGSGTDFTLTISGLHPEDFATYFCQQSFSTPPITFGQGTRLDIK
B2: BSPSMA/CD3-200 (bispecific antibody, IgG4, V domains shown)
VH 1: QVQLVESGGGVVQPGRSLRLSCAASGFTFSSYGMHWVRQAPGKGLEWVAVISYAGNNKYYADSVKGRFTVSRDNSKKTLYLQMNSLRSEDTAVYYCAKDSYYDFLTDPDVLDIWGQGTMVTVSS
VH 2: EVQLVESGGGLVQPGRSLRLSCAASGFTFDDYAMHWVRQAPGKGLEWVSGISWNSGSIGYADSVKGRFTISRDNAKNSLYLQMNSLRAEDTALYYCAKDGSGYGYFYYYGMDVWGQGTTVTVSS
VL: DIQMTQSPSSLSASVGDSVTITCRASQSINNYLNWYQQKPGKAPKLLIYTASSLLSGVPSRFSGSGSGTDFTLTISGLHPEDFATYFCQQSFSTPPITFGQGTRLDIK
B3: BSPSMA/CD3-300 (bispecific antibody, IgG4, V domains shown)
VH 1: QVQLVESGGGVVQPGRSLRLSCAASGFTFSSYGMHWVRQAPGKGLEWVAVISYAGNNKYYADSVKGRFTVSRDNSKKTLYLQMNSLRSEDTAVYYCAKDSYYDFLTDPDVLDIWGQGTMVTVSS
VH 2: EVQLVESGGGLVQPGRSLRLSCAASGFTFDDYSMHWVRQAPGKGLEWVSGISWNSGSIGYADSVKGRFTISRDNAKNSLYLQMNSLRAEDTALYYCAKDGSGYGYFYYYGMDVWGQGTTVTVSS
VL: DIQMTQSPSSLSASVGDSVTITCRASQSINNYLNWYQQKPGKAPKLLIYTASSLLSGVPSRFSGSGSGTDFTLTISGLHPEDFATYFCQQSFSTPPITFGQGTRLDIK
B4: BSPSMA/CD3-400 (bispecific antibody, IgG4, V domains shown)
VH 1: QVQLVESGGGVVQPGRSLRLSCAASGFTFSSYGMHWVRQAPGKGLEWVAVISYAGNNKYYADSVKGRFTVSRDNSKKTLYLQMNSLRSEDTAVYYCAKDSYYDFLTDPDVLDIWGQGTMVTVSS
VH 2: EVQLVESGGGLVQPGRSLRLSCAASGFTFDDYAMHWVRQAPGKGLEWVSGISWNSGSIGYADSVKGRFTISRDNAKNSLYLQMNSLRAEDTALYYCAKDGSGYGKFYYYGMDVWGQGTTVTVSS
VL: DIQMTQSPSSLSASVGDSVTITCRASQSINNYLNWYQQKPGKAPKLLIYTASSLLSGVPSRFSGSGSGTDFTLTISGLHPEDFATYFCQQSFSTPPITFGQGTRLDIK
B5: BSPSMA/CD3-800 (bispecific antibody, IgG4, V domains shown)
VH 1: QVQLVESGGGVVQPGRSLRLSCAASGFTFSSYGMHWVRQAPGKGLEWVAVISYAGNNKYYADSVKGRFTVSRDNSKKTLYLQMNSLRSEDTAVYYCAKDSYYDFLTDPDVLDIWGQGTMVTVSS
VH 2: EVQLVESGGGLVQPGRSLRLSCAASGFTFDDYSMHWVRQAPGKGLEWVSGISWNSGSIGYADSVKGRFTISRDNAKNSLYLQMNSLRAEDTALYYCAKYGSGYGKFYHYGLDVWGQGTTVTVSS
VL: DIQMTQSPSSLSASVGDSVTITCRASQSINNYLNWYQQKPGKAPKLLIYTASSLLSGVPSRFSGSGSGTDFTLTISGLHPEDFATYFCQQSFSTPPITFGQGTRLDIK
B6: BSPSMA/CD3-900 (bispecific antibody, IgG4, V domains shown)
VH 1: QVQLVESGGGVVQPGRSLRLSCAASGFTFSSYGMHWVRQAPGKGLEWVAVISYAGNNKYYADSVKGRFTVSRDNSKKTLYLQMNSLRSEDTAVYYCAKDSYYDFLTDPDVLDIWGQGTMVTVSS
VH 2: EVQLVESGGGLVQPGRSLRLSCAASGFTFDDYSMHWVRQAPGKGLEWVSGISWNSGSKGYADSVKGRFTISRDNAKNSLYLQMNSLRAEDTALYYCAKDGSGYGKFYHYGLDVWGQGTTVTVSS
VL: DIQMTQSPSSLSASVGDSVTITCRASQSINNYLNWYQQKPGKAPKLLIYTASSLLSGVPSRFSGSGSGTDFTLTISGLHPEDFATYFCQQSFSTPPITFGQGTRLDIK
B7: BSPSMA/CD3-1000 (bispecific antibody, IgG4, V domains shown)
VH 1: QVQLVESGGGVVQPGRSLRLSCAASGFTFSSYGMHWVRQAPGKGLEWVAVISYAGNNKYYADSVKGRFTVSRDNSKKTLYLQMNSLRSEDTAVYYCAKDSYYDFLTDPDVLDIWGQGTMVTVSS
VH 2: EVQLVESGGGLVQPGRSLRLSCAASGFTFDDYSMHWVRQAPGKGLEWVSGISWNSGSKGYADSVKGRFTISRDNAKNSLYLQMNSLRAEDTALYYCAKYGSGYGKFYYYGLDVWGQGTTVTVSS
VL: DIQMTQSPSSLSASVGDSVTITCRASQSINNYLNWYQQKPGKAPKLLIYTASSLLSGVPSRFSGSGSGTDFTLTISGLHPEDFATYFCQQSFSTPPITFGQGTRLDIK
B8: BSPSMA/CD3-1100 (bispecific antibody, IgG4, V domains shown)
VH 1: QVQLVESGGGVVQPGRSLRLSCAASGFTFSSYGMHWVRQAPGKGLEWVAVISYAGNNKYYADSVKGRFTVSRDNSKKTLYLQMNSLRSEDTAVYYCAKDSYYDFLTDPDVLDIWGQGTMVTVSS
VH 2: EVQLVESGGGLVQPGRSLRLSCAASGFTFDDYSMHWVRQAPGKGLEWVSGISWNSGSKGYADSVKGRFTISRDNAKNSLYLQMNSLRAEDTALYYCAKYGSGYGKFYHYGMDVWGQGTTVTVSS
VL: DIQMTQSPSSLSASVGDSVTITCRASQSINNYLNWYQQKPGKAPKLLIYTASSLLSGVPSRFSGSGSGTDFTLTISGLHPEDFATYFCQQSFSTPPITFGQGTRLDIK
B9: BSPSMA/CD3-1200 (bispecific antibody, IgG4, V domains shown)
VH 1: QVQLVESGGGVVQPGRSLRLSCAASGFTFSSYGMHWVRQAPGKGLEWVAVISYAGNNKYYADSVKGRFTVSRDNSKKTLYLQMNSLRSEDTAVYYCAKDSYYDFLTDPDVLDIWGQGTMVTVSS
VH 2: EVQLVESGGGLVQPGRSLRLSCAASGFTFDDYSMHWVRQAPGKGLEWVSGISWNSGSIGYADSVKGRFTISRDNAKNSLYLQMNSLRAEDTALYYCAKDGSGYGKFYHYGLDVWGQGTTVTVSS
VL: DIQMTQSPSSLSASVGDSVTITCRASQSINNYLNWYQQKPGKAPKLLIYTASSLLSGVPSRFSGSGSGTDFTLTISGLHPEDFATYFCQQSFSTPPITFGQGTRLDIK
B10: BSPSMA/CD3-1300 (bispecific antibody, IgG4, V domains shown)
VH 1: QVQLVESGGGVVQPGRSLRLSCAASGFTFSSYGMHWVRQAPGKGLEWVAVISYAGNNKYYADSVKGRFTVSRDNSKKTLYLQMNSLRSEDTAVYYCAKDSYYDFLTDPDVLDIWGQGTMVTVSS
VH 2: EVQLVESGGGLVQPGRSLRLSCAASGFTFDDYSMHWVRQAPGKGLEWVSGISWNSGSIGYADSVKGRFTISRDNAKNSLYLQMNSLRAEDTALYYCAKYGSGYGKFYYYGLDVWGQGTTVTVSS
VL: DIQMTQSPSSLSASVGDSVTITCRASQSINNYLNWYQQKPGKAPKLLIYTASSLLSGVPSRFSGSGSGTDFTLTISGLHPEDFATYFCQQSFSTPPITFGQGTRLDIK
B11: BSPSMA/CD3-1400 (bispecific antibody, IgG4, V domains shown)
VH 1: QVQLVESGGGVVQPGRSLRLSCAASGFTFSSYGMHWVRQAPGKGLEWVAVISYAGNNKYYADSVKGRFTVSRDNSKKTLYLQMNSLRSEDTAVYYCAKDSYYDFLTDPDVLDIWGQGTMVTVSS
VH 2: EVQLVESGGGLVQPGRSLRLSCAASGFTFDDYSMHWVRQAPGKGLEWVSGISWNSGSIGYADSVKGRFTISRDNAKNSLYLQMNSLRAEDTALYYCAKYGSGYGKFYHYGMDVWGQGTTVTVSS
VL: DIQMTQSPSSLSASVGDSVTITCRASQSINNYLNWYQQKPGKAPKLLIYTASSLLSGVPSRFSGSGSGTDFTLTISGLHPEDFATYFCQQSFSTPPITFGQGTRLDIK
B12: BSPSMA/CD3-1500 (bispecific antibody, IgG4, V domains shown)
VH 1: QVQLVESGGGVVQPGRSLRLSCAASGFTFSSYGMHWVRQAPGKGLEWVAVISYAGNNKYYADSVKGRFTVSRDNSKKTLYLQMNSLRSEDTAVYYCAKDSYYDFLTDPDVLDIWGQGTMVTVSS
VH 2: EVQLVESGGGLVQPGRSLRLSCAASGFTFDDYSMHWVRQAPGKGLEWVSGISWNSGSKGYADSVKGRFTISRDNAKNSLYLQMNSLRAEDTALYYCAKDGSGYGKFYYYGLDVWGQGTTVTVSS
VL: DIQMTQSPSSLSASVGDSVTITCRASQSINNYLNWYQQKPGKAPKLLIYTASSLLSGVPSRFSGSGSGTDFTLTISGLHPEDFATYFCQQSFSTPPITFGQGTRLDIK
B13: BSPSMA/CD3-1600 (bispecific antibody, IgG4, V domains shown)
VH 1: QVQLVESGGGVVQPGRSLRLSCAASGFTFSSYGMHWVRQAPGKGLEWVAVISYAGNNKYYADSVKGRFTVSRDNSKKTLYLQMNSLRSEDTAVYYCAKDSYYDFLTDPDVLDIWGQGTMVTVSS
VH 2: EVQLVESGGGLVQPGRSLRLSCAASGFTFDDYSMHWVRQAPGKGLEWVSGISWNSGSKGYADSVKGRFTISRDNAKNSLYLQMNSLRAEDTALYYCAKDGSGYGKFYHYGMDVWGQGTTVTVSS
VL: DIQMTQSPSSLSASVGDSVTITCRASQSINNYLNWYQQKPGKAPKLLIYTASSLLSGVPSRFSGSGSGTDFTLTISGLHPEDFATYFCQQSFSTPPITFGQGTRLDIK
B14: BSPSMA/CD3-1700 (bispecific antibody, IgG4, V domains shown)
VH 1: QVQLVESGGGVVQPGRSLRLSCAASGFTFSSYGMHWVRQAPGKGLEWVAVISYAGNNKYYADSVKGRFTVSRDNSKKTLYLQMNSLRSEDTAVYYCAKDSYYDFLTDPDVLDIWGQGTMVTVSS
VH 2: EVQLVESGGGLVQPGRSLRLSCAASGFTFDDYSMHWVRQAPGKGLEWVSGISWNSGSKGYADSVKGRFTISRDNAKNSLYLQMNSLRAEDTALYYCAKYGSGYGKFYYYGMDVWGQGTTVTVSS
VL: DIQMTQSPSSLSASVGDSVTITCRASQSINNYLNWYQQKPGKAPKLLIYTASSLLSGVPSRFSGSGSGTDFTLTISGLHPEDFATYFCQQSFSTPPITFGQGTRLDIK
B15: BSPSMA/CD3-1800 (bispecific antibody, IgG4, V domains shown)
VH 1: QVQLVESGGGVVQPGRSLRLSCAASGFTFSSYGMHWVRQAPGKGLEWVAVISYAGNNKYYADSVKGRFTVSRDNSKKTLYLQMNSLRSEDTAVYYCAKDSYYDFLTDPDVLDIWGQGTMVTVSS
VH 2: EVQLVESGGGLVQPGRSLRLSCAASGFTFDDYSMHWVRQAPGKGLEWVSGISWNSGSIGYADSVKGRFTISRDNAKNSLYLQMNSLRAEDTALYYCAKDGSGYGKFYYYGLDVWGQGTTVTVSS
VL: DIQMTQSPSSLSASVGDSVTITCRASQSINNYLNWYQQKPGKAPKLLIYTASSLLSGVPSRFSGSGSGTDFTLTISGLHPEDFATYFCQQSFSTPPITFGQGTRLDIK

Experiments:
[1] = molecular target: human PSMA on PSMA-expressing cells (human) (UniProt Q04609); assay: FACS on PSMA-expressing cells
[2] = molecular target: soluble heterodimeric hCD3ε/δ.mFc protein (human); assay: SPR, 37 C, antigen-capture format

| Binder | binding [1] | binding [2] |
| --- | --- | --- |
| B1 | binds | – |
| B2 | binds | – |
| B3 | binds | – |
| B4 | binds | – |
| B5 | binds | binds |
| B6 | binds | binds |
| B7 | binds | binds |
| B8 | binds | binds |
| B9 | binds | binds |
| B10 | binds | binds |
| B11 | binds | binds |
| B12 | binds | binds |
| B13 | binds | binds |
| B14 | binds | binds |
| B15 | binds | – |
